In patent US20240099994A1, “LONG-ACTING INJECTABLE FORMULATIONS OF KETAMINE PAMOATE SALTS” (ALAR PHARMACEUTICAL INC., priority 2019, published 2024):
Where a name gives a salt, the structure may show the parent alone. Some entries share one result that the patent states for a list of compounds. At least one compound was matched to its structure with a doubt left.

Tested on: DEX-induced depression-like animal model
Test: Forced swimming test (FST) in dexamethasone (DEX)-induced depression-like animal model
Type: in vivo, ICR mice
Conditions: DEX-treated mice, single SC injection, 120 mg/kg ketamine free-base
Description: FIG. 43 is a diagram illustrating the protocol of dexamethasone (DEX)-induced depression-like animal model to evaluate the antidepressant effects of ketamine HCl (KET), R, S-ketamine pamoate salt (KEP), S-ketamine pamoate salt (S-KEP), and R-ketamine pamoate salt (R-KEP). ICR mice were intraperitoneally injected with saline or DEX at postnatal day 1 to 3 (P1 to P3) with dose decrement of 0.5 mg/kg, 0.3 mg/kg, and 0.1 mg/kg, respectively. The drugs for each group or saline group were administered subcutaneously at day 35 (P35, i.e., dosing day 0, D0), and the forced swimming test (FST) were conducted every 10 days from dosing day 1 (D1, P36) to P98. Evaluation of sedation behavior was also conducted by sedation rating scale from the time immediately post injection to dosing day 28 after drug administration. […]
Antidepressant effects were evaluated by forced swimming test (FST), which performed about every 10 days from the first day (P36) to the 63rd day (P98) after drug administration. […] Student's t-test was analyzed with the Saline group (DEX-treated mouse group injected with saline) versus the other groups at each time point. *p<0.05, **p<0.01, ***p<0.001, and ****p<0.0001 indicate significant differences compared to the Saline group.

Structure (SMILES) | Duration of reduced immobility time / sustained antidepressant effect on FST after administration
CN[C@@]1(c2ccccc2Cl)CCCCC1=O [R-ketamine pamoate salt (Crystal, ratio 2:1)] | at least 10 days
CN[C@]1(c2ccccc2Cl)CCCCC1=O [S-ketamine pamoate salt (Crystal, ratio 2:1)] | at least 10 days
